In the supplement of paper PMC8728848:
The list shows a part of the results.

Experiments:
Assay in all cases: glycan array binding signal (z-score within array); higher = stronger binding
Conditions in all cases: glycan notation: IUPAC condensed, linker removed
Glc(a1-6)Glc(a1-6)Glc = molecular target: Glc(a1-6)Glc(a1-6)Glc
Procedure, shortened: (§1)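 The binding signal is a Z-score computed within each array. Data were drawn from 3228 arrays in the Consortium for Functional Glycomics database, restricted to those with a known protein sequence. Scores were averaged over arrays of the same protein sequence at different concentrations or buffers, and over linkers, and negative values can be taken as non-binding.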

[1] = molecular target: Glc(a1-6)Glc(a1-6)Glc(a1-6)Glc
Procedure, shortened: as §1

Glc(b1-4)Glc = molecular target: Glc(b1-4)Glc
Procedure, shortened: as §1

Glc(b1-6)Glc = molecular target: Glc(b1-6)Glc
Procedure, shortened: as §1

GlcA(b1-3)Gal = molecular target: GlcA(b1-3)Gal
Procedure, shortened: as §1

GlcA(b1-3)GlcNAc = molecular target: GlcA(b1-3)GlcNAc
Procedure, shortened: as §1

GlcA(b1-6)Gal = molecular target: GlcA(b1-6)Gal
Procedure, shortened: as §1

[2] = molecular target: GlcA3S(b1-3)Gal(b1-4)GlcNAc(b1-2)Man
Procedure, shortened: as §1

[3] = molecular target: GlcA3S(b1-3)Gal(b1-4)GlcNAc(b1-3)Gal(b1-4)Glc
Procedure, shortened: as §1

[4] = molecular target: GlcNAc(a1-3)Gal(b1-4)GlcNAc
Procedure, shortened: as §1

[5] = molecular target: GlcNAc(a1-4)Gal(b1-3)GlcNAc
Procedure, shortened: as §1

[6] = molecular target: GlcNAc(a1-4)Gal(b1-4)GalNAc
Procedure, shortened: as §1

[7] = molecular target: GlcNAc(a1-4)Gal(b1-4)GlcNAc
Procedure, shortened: as §1

[8] = molecular target: GlcNAc(a1-4)Gal(b1-4)GlcNAc(b1-3)Gal(b1-4)Glc
Procedure, shortened: as §1

[9] = molecular target: GlcNAc(a1-4)Gal(b1-4)GlcNAc(b1-3)Gal(b1-4)GlcNAc
Procedure, shortened: as §1

[10] = molecular target: GlcNAc(a1-4)Gal(b1-4)GlcNAc(b1-3)Gal(b1-4)GlcNAc(b1-3)Gal(b1-4)GlcNAc
Procedure, shortened: as §1

[11] = molecular target: GlcNAc(a1-4)Gal(b1-4)GlcNAc(b1-3)Gal(b1-4)[Fuc(a1-3)]GlcNAc(b1-3)Gal(b1-4)[Fuc(a1-3)]GlcNAc
Procedure, shortened: as §1

[12] = molecular target: GlcNAc(a1-6)Gal(b1-4)GlcNAc
Procedure, shortened: as §1

[13] = molecular target: GlcNAc(b1-2)Gal(b1-3)GalNAc
Procedure, shortened: as §1

[14] = molecular target: GlcNAc(b1-2)Man(a1-3)[GlcNAc(b1-2)Man(a1-6)]Man(b1-4)GlcNAc(b1-4)GlcNAc
Procedure, shortened: as §1

[15] = molecular target: GlcNAc(b1-2)Man(a1-3)[GlcNAc(b1-2)Man(a1-6)]Man(b1-4)GlcNAc(b1-4)[Fuc(a1-6)]GlcNAc
Procedure, shortened: as §1

[16] = molecular target: GlcNAc(b1-2)Man(a1-3)[GlcNAc(b1-4)][GlcNAc(b1-2)Man(a1-6)]Man(b1-4)GlcNAc(b1-4)GlcNAc
Procedure, shortened: as §1

[17] = molecular target: GlcNAc(b1-2)Man(a1-3)[GlcNAc(b1-4)][GlcNAc(b1-2)Man(a1-6)]Man(b1-4)GlcNAc(b1-4)[Fuc(a1-6)]GlcNAc
Procedure, shortened: as §1

[18] = molecular target: GlcNAc(b1-2)[GlcNAc(b1-4)]Man(a1-3)[GlcNAc(b1-2)Man(a1-6)]Man(b1-4)GlcNAc(b1-4)GlcNAc
Procedure, shortened: as §1

[19] = molecular target: GlcNAc(b1-2)[GlcNAc(b1-4)]Man(a1-3)[GlcNAc(b1-4)][GlcNAc(b1-2)Man(a1-6)]Man(b1-4)GlcNAc(b1-4)GlcNAc
Procedure, shortened: as §1

[20] = molecular target: GlcNAc(b1-2)[GlcNAc(b1-4)]Man(a1-3)[GlcNAc(b1-4)][GlcNAc(b1-2)[GlcNAc(b1-6)]Man(a1-6)]Man(b1-4)GlcNAc(b1-4)GlcNAc
Procedure, shortened: as §1

[21] = molecular target: GlcNAc(b1-2)[GlcNAc(b1-4)]Man(a1-3)[GlcNAc(b1-4)][GlcNAc(b1-2)[GlcNAc(b1-6)]Man(a1-6)]Man(b1-4)GlcNAc(b1-4)[Fuc(a1-6)]GlcNAc
Procedure, shortened: as §1

[22] = molecular target: GlcNAc(b1-2)[GlcNAc(b1-6)]Man(a1-6)[GlcNAc(b1-2)Man(a1-3)]Man(b1-4)GlcNAc(b1-4)GlcNAc
Procedure, shortened: as §1

[23] = molecular target: GlcNAc(b1-2)[GlcNAc(b1-6)]Man(a1-6)[GlcNAc(b1-2)Man(a1-3)]Man(b1-4)GlcNAc(b1-4)[Fuc(a1-6)]GlcNAc
Procedure, shortened: as §1

[24] = molecular target: GlcNAc(b1-2)[GlcNAc(b1-6)]Man(a1-6)[GlcNAc(b1-4)][GlcNAc(b1-2)Man(a1-3)]Man(b1-4)GlcNAc(b1-4)GlcNAc
Procedure, shortened: as §1

GlcNAc(b1-3)Fuc = molecular target: GlcNAc(b1-3)Fuc
Procedure, shortened: as §1

GlcNAc(b1-3)Gal = molecular target: GlcNAc(b1-3)Gal
Procedure, shortened: as §1

[25] = molecular target: GlcNAc(b1-3)Gal(b1-3)GalNAc
Procedure, shortened: as §1

GlcNAc(b1-3)Gal(b1-4)Glc = molecular target: GlcNAc(b1-3)Gal(b1-4)Glc
Procedure, shortened: as §1

[26] = molecular target: GlcNAc(b1-3)Gal(b1-4)GlcNAc
Procedure, shortened: as §1

[27] = molecular target: GlcNAc(b1-3)Gal(b1-4)GlcNAc(b1-2)Man(a1-3)[GlcNAc(b1-3)Gal(b1-4)GlcNAc(b1-2)Man(a1-6)]Man(b1-4)GlcNAc(b1-4)GlcNAc
Procedure, shortened: as §1

[28] = molecular target: GlcNAc(b1-3)Gal(b1-4)GlcNAc(b1-2)Man(a1-3)[GlcNAc(b1-3)Gal(b1-4)GlcNAc(b1-2)Man(a1-6)]Man(b1-4)GlcNAc(b1-4)[Fuc(a1-6)]GlcNAc
Procedure, shortened: as §1

[29] = molecular target: GlcNAc(b1-3)Gal(b1-4)GlcNAc(b1-2)[GlcNAc(b1-3)Gal(b1-4)GlcNAc(b1-6)]Man(a1-6)[GlcNAc(b1-3)Gal(b1-4)GlcNAc(b1-2)Man(a1-3)]Man(b1-4)GlcNAc(b1-4)GlcNAc
Procedure, shortened: as §1

[30] = molecular target: GlcNAc(b1-3)Gal(b1-4)GlcNAc(b1-3)Gal(b1-4)GlcNAc
Procedure, shortened: as §1

[31] = molecular target: GlcNAc(b1-3)Gal(b1-4)GlcNAc(b1-3)Gal(b1-4)GlcNAc(b1-2)Man(a1-3)[GlcNAc(b1-3)Gal(b1-4)GlcNAc(b1-3)Gal(b1-4)GlcNAc(b1-2)Man(a1-6)]Man(b1-4)GlcNAc(b1-4)GlcNAc
Procedure, shortened: as §1

[32] = molecular target: GlcNAc(b1-3)Gal(b1-4)GlcNAc(b1-3)Gal(b1-4)GlcNAc(b1-2)Man(a1-3)[GlcNAc(b1-3)Gal(b1-4)GlcNAc(b1-3)Gal(b1-4)GlcNAc(b1-2)Man(a1-6)]Man(b1-4)GlcNAc(b1-4)[Fuc(a1-6)]GlcNAc
Procedure, shortened: as §1

[33] = molecular target: GlcNAc(b1-3)Gal(b1-4)GlcNAc(b1-3)Gal(b1-4)GlcNAc(b1-2)[GlcNAc(b1-3)Gal(b1-4)GlcNAc(b1-3)Gal(b1-4)GlcNAc(b1-6)]Man(a1-6)[GlcNAc(b1-3)Gal(b1-4)GlcNAc(b1-3)Gal(b1-4)GlcNAc(b1-2)Man(a1-3)]Man(b1-4)GlcNAc(b1-4)[Fuc(a1-6)]GlcNAc
Procedure, shortened: as §1

[34] = molecular target: GlcNAc(b1-3)Gal(b1-4)GlcNAc(b1-3)Gal(b1-4)GlcNAc(b1-3)Gal(b1-4)GlcNAc(b1-2)Man(a1-3)[GlcNAc(b1-3)Gal(b1-4)GlcNAc(b1-3)Gal(b1-4)GlcNAc(b1-3)Gal(b1-4)GlcNAc(b1-2)Man(a1-6)]Man(b1-4)GlcNAc(b1-4)GlcNAc
Procedure, shortened: as §1

[35] = molecular target: GlcNAc(b1-3)Gal(b1-4)GlcNAc(b1-3)Gal(b1-4)GlcNAc(b1-3)Gal(b1-4)GlcNAc(b1-2)Man(a1-3)[GlcNAc(b1-3)Gal(b1-4)GlcNAc(b1-3)Gal(b1-4)GlcNAc(b1-3)Gal(b1-4)GlcNAc(b1-2)Man(a1-6)]Man(b1-4)GlcNAc(b1-4)[Fuc(a1-6)]GlcNAc
Procedure, shortened: as §1

[36] = molecular target: GlcNAc(b1-3)Gal(b1-4)GlcNAc(b1-3)Gal(b1-4)GlcNAc(b1-3)Gal(b1-4)GlcNAc(b1-2)[GlcNAc(b1-3)Gal(b1-4)GlcNAc(b1-3)Gal(b1-4)GlcNAc(b1-3)Gal(b1-4)GlcNAc(b1-6)]Man(a1-6)[GlcNAc(b1-3)Gal(b1-4)GlcNAc(b1-3)Gal(b1-4)GlcNAc(b1-3)Gal(b1-4)GlcNAc(b1-2)Man(a1-3)]Man(b1-4)GlcNAc(b1-4)[Fuc(a1-6)]GlcNAc
Procedure, shortened: as §1

B1: BabA (Helicobacter pylori), O52269_HELPY (protein)
chain: AEDDGFYMSAGYQIGEAAQMVKNTKGIQELSDNYENLSNLLTRYSTLNTLIKLSADPSAVNAARENLGASAKNLIGDTKNSPAYQAVLLAINAAVGFWNVVGYVTQCGGNANGQKSTSSTTIFNNEPGYRSTSITCSLNGHMPGYYGPMSIENFKKLNEAYQILQTALKNGLPALKENNGTVNVTYSYTCSGEGNDNCSLQTTGVTNQNNGTKTETQTIDGKSVTTTISSKVVDSQ
In the case of B1, the “glycan array binding signal (z-score)” value (Glc(a1-6)Glc(a1-6)Glc) is reported as 0.573, the “glycan array binding signal (z-score)” value [1] is reported as 0.59 and the “glycan array binding signal (z-score)” value (Glc(b1-4)Glc) is reported as -0.119. The “glycan array binding signal (z-score)” value (Glc(b1-6)Glc) was 0.7, the “glycan array binding signal (z-score)” value (GlcA(b1-3)Gal) was -0.056 and the “glycan array binding signal (z-score)” value (GlcA(b1-3)GlcNAc) was 0.551. For the same binder, the “glycan array binding signal (z-score)” value (GlcA(b1-6)Gal) was -0.267, the “glycan array binding signal (z-score)” value [2] was -0.555 and the “glycan array binding signal (z-score)” value [3] was -0.718. The “glycan array binding signal (z-score)” value [4] was -0.521, the “glycan array binding signal (z-score)” value [5] was -0.604 and the “glycan array binding signal (z-score)” value [6] was 1.61. For the same binder, the “glycan array binding signal (z-score)” value [7] was 1.1, the “glycan array binding signal (z-score)” value [8] was 0.087 and the “glycan array binding signal (z-score)” value [9] was 1.12. For the same binder, the “glycan array binding signal (z-score)” value [10] was -1.14, the “glycan array binding signal (z-score)” value [11] was 2.51 and the “glycan array binding signal (z-score)” value [12] was -0.128. For the same binder, the “glycan array binding signal (z-score)” value [13] was -0.387, the “glycan array binding signal (z-score)” value [14] was 0.294 and the “glycan array binding signal (z-score)” value [15] was -0.602. The “glycan array binding signal (z-score)” value [16] was 0.726, the “glycan array binding signal (z-score)” value [17] was -0.664 and the “glycan array binding signal (z-score)” value [18] was -0.455. The “glycan array binding signal (z-score)” value [19] was -0.437, the “glycan array binding signal (z-score)” value [20] was -0.555 and the “glycan array binding signal (z-score)” value [21] was -0.373. The “glycan array binding signal (z-score)” value [22] was -0.364, the “glycan array binding signal (z-score)” value [23] was 0.399 and the “glycan array binding signal (z-score)” value [24] was -0.537. For the same binder, the “glycan array binding signal (z-score)” value (GlcNAc(b1-3)Fuc) was -0.092, the “glycan array binding signal (z-score)” value (GlcNAc(b1-3)Gal) was -1.16 and the “glycan array binding signal (z-score)” value [25] was -0.168. For the same binder, the “glycan array binding signal (z-score)” value (GlcNAc(b1-3)Gal(b1-4)Glc) was 0.005, the “glycan array binding signal (z-score)” value [26] was -1.05 and the “glycan array binding signal (z-score)” value [27] was 0.363. The “glycan array binding signal (z-score)” value [28] was 1.03, the “glycan array binding signal (z-score)” value [29] was 1.25 and the “glycan array binding signal (z-score)” value [30] was -0.955. For the same binder, the “glycan array binding signal (z-score)” value [31] was 4.69, the “glycan array binding signal (z-score)” value [32] was 2.82 and the “glycan array binding signal (z-score)” value [33] was 3.66. The “glycan array binding signal (z-score)” value [34] was 0.899, the “glycan array binding signal (z-score)” value [35] was 2.94 and the “glycan array binding signal (z-score)” value [36] was 2.92.
